From patent US20130252818A1, “AMORPHOUS BIOINORGANIC IONIC LIQUID COMPOSITIONS COMPRISING AGRICULTURAL SUBSTANCES” (priority 2012, published 2013)
For at least one compound, name, drawing or mass did not settle the structure.

Assay type: physicochemical

## CC(COc1ccccc1)N(CCCl)Cc1ccccc1.Cl.[Cl][Zn][Cl].[Cl][Zn][Cl] (stereo not shown) [Phenoxybenzamine-HCl—(ZnCl2)2]
  Thermal decomposition, % of the starting mass lost: 2.7%
